No constants are given. Whether binding was seen depends on the method and setting. In cells and extracts the contact can be indirect. Some entries that bind do so weakly or less than the wild type. For some assays here: Tags and fused reporters may be left off the sequences shown. Values belong to the binder of their own block, whether it stands above or below them.
Legend:
[1] = molecular target: Np65DDEP(-)-GFP (UniProt P97546); assay: co-IP
[2] = molecular target: neuroplastin (endogenous, rat brain) (rat (endogenous in brain)) (UniProt P97546); assay: co-IP

Protein sequences, listed by entry. Tags and fused reporters are not part of them. Residues count along the entry.
UniProt P97546, residues 29-393: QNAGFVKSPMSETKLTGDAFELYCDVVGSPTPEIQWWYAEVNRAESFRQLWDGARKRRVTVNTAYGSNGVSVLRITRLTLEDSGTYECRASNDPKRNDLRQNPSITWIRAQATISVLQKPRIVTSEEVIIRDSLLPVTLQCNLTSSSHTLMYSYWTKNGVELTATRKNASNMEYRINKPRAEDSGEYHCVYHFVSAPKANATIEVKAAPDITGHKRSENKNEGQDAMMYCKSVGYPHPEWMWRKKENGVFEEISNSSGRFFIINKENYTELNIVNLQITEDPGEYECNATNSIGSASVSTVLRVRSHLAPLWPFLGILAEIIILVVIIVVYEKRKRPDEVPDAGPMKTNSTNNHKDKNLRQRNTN

- binding [1]: binds
B1: Flag-TRAF6 (protein, UniProt P70196 1-530)
chain: MSLLNCENSCGSSQSSSDCCAAMAASCSAAVKDDSVSGSASTGNLSSSFMEEIQGYDVEFDPPLESKYECPICLMALREAVQTPCGHRFCKACIIKSIRDAGHKCPVDNEILLENQLFPDNFAKREILSLTVKCPNKGCLQKMELRHLEDHQVHCEFALVNCPQCQRPFQKCQVNTHIIEDCPRRQVSCVNCAVSMAYEEKEIHDQSCPLANIICEYCGTILIREQMPNHYDLDCPTAPIPCTFSVFGCHEKMQRNHLARHLQENTQLHMRLLAQAVHNVNLALRPCDAASPSRGCRPEDPNYEETIKQLESRLVRQDHQIRELTAKMETQSMYVGELKRTIRTLEDKVAEMEAQQCNGIYIWKIGNFGMHLKSQEEERPVVIHSPGFYTGRPGYKLCMRLHLQLPTAQRCANYISLFVHTMQGEYDSHLPWPFQGTIRLTILDQSEALIRQNHEEVMDAKPELLAFQRPTIPRNPKGFGYVTFMHLEALRQGTFIKDDTLLVRCEVSTRFDMGGLRKEGFQPRSTDAGV

- binding [2]: binds
B2: TRAF6 (endogenous, rat brain) (protein, UniProt B5DF45 1-530)
chain: MSLLNCENSCASSQSSSDCCAAMANSCSAAMKDDSVSGCVSTGNLSSSFMEEIQGYDVEFDPPLESKYECPICLMALREAVQTPCGHRFCKACITKSIRDAGHKCPVDNEILLENQLFPDNFAKREILSLTVKCPNKGCVQKMELRHLEDHQVHCEFALVICPQCQRFFQKCQINKHIIEDCPRRQVSCVNCAVPMPYEEKEIHDQSCPLANIICEYCGTILIREQMPNHYDLDCPTAPVPCTFSVFGCHEKMQRNHLARHLQENTQLHMRLLAQAVHNVNLSLRPCDASSPSRGCRPEDPNYEETVKQLEGRLVRQDHQIRELTAKMETQSMHVSELKRTIRSLEDKVAEMEAQQCNGIYIWKIGNFGMHLKSQEEERPVVIHSPGFYTGRPGYKLCMRLHLQLPTAQRCANYISLFVHTMQGEYDSHLPWPFQGTIRLTILDQSEAVIRQNHEEVMDAKPELLAFQRPTIPRNPKGFGYVTFMHLEALRQGTFIKDDTLLVRCEVSTRFDMGGLRKEGFQPRSTDAGV

Source: article doi:10.1101/768341
